PMC10534827 (Pharmaceuticals, 2023)

Experiments:
[1] = test system: CCL-1 cells; assay: MTT cytotoxicity, CCL-1 normal fibroblasts; assay type: cell-based, murine; settings: Mus musculus, Fibroblast, 72 h exposure
[2] = test system: Neuro-2a cells; assay: MTT cytotoxicity, Neuro-2a; assay type: cell-based, murine; settings: Mus musculus, N2a, 72 h exposure
[3] = ABTS radical scavenging assay; settings: 734 nm after 5 min
[4] = test system: SH-SY5Y cells; assay: MTT cytotoxicity, SH-SY5Y; assay type: cell-based; settings: Homo sapiens, 72 h exposure
[5] = Lipid peroxidation in linoleic acid system, FTC method; settings: 10 mM compound, 500 nm
Protocol: During lipid peroxidation, peroxides were formed and oxidized Fe^2+ to Fe^3 +. The Fe^3+ ions formed a complex with SCN^–, with an absorption maximum of 500 nm. Thus, a high absorbance was an indication of high peroxide formation during the emulsion incubation. The presence of compounds with antioxidant properties in the mixture decreased the linoleic acid oxidation and reduced absorption, respectively. […] […].
The antioxidant activity of studied compounds against lipid peroxidation was measured through ammonium thiocyanate assay as described by Takao et al. with some modifications. The reaction solution, containing 200 μL of the compound (10 mM) in MeOH, 200 μL of linoleic acid emulsions (25 mg/mL in 99% ethanol), and 400 μL of 50 mM phosphate buffer (pH 7.6) was incubated in the dark at room temperature. A 10 μL aliquot of the reaction solution was then added to 200 μL of 70% (v/v) ethanol and 10 μL of 30% (w/v) ammonium thiocyanate. Precisely 3 min after the addition of 10 μL of 20 mM ferrous chloride in 3.5% (v/v) hydrochloric acid to the reaction mixture, the absorbance of the resulting red color was measured at 500 nm. Aliquots were assayed every 24 h until the day after the absorbance of the control solution (without compound) reached maximum value. BHT (10 mM) was used as positive control.

## COc1cc2c(cc1OC)C(=O)C(CC1CCN(Cc3ccccc3)CC1)C2 (stereo not drawn) [Donepezil, 1-Benzyl-4-[(5,6-dimethoxy-1-indanon-2-yl)methyl]piperidine, reference compound]
[1]
  IC50: 52 ± 5.3 µM
[2]
  IC50: 248 ± 15.4 µM
[3]
  IC50: > 5000 µM
[4]
  IC50: 79.3 ± 6.2 µM
[5]; Day 1
  Absorbance Day 1: 0.79 ± 0.08
[5]; Day 2
  Absorbance Day 2: 0.82 ± 0.08
[5]; Day 3
  Absorbance Day 3: 0.84 ± 0.04
[5]; Day 4
  Absorbance Day 4: 1.19 ± 0.24
[5]; Day 5
  Absorbance Day 5: 2.00 ± 0.18
